PubChem BioAssay AID720504 (National Center for Advancing Translational Sciences (NCATS), 2013)
Out of some 360,000 compounds screened, about 10,000 (2.8%) were called active. The shares of active, inactive and inconclusive entries below differ from those in the screen. Calls come from the whole dose curve; as a rule, active = well fitted inhibition curve with a large enough effect; inconclusive = small, poorly fitted or top-dose-only effect; inactive = flat fitted curve, though single readings scatter. Where the call is inconclusive, the potency comes from a doubtful curve fit.

Amino acid sequences for entries named in this document (tags omitted).
UniProt P53350, whole entry, looked up: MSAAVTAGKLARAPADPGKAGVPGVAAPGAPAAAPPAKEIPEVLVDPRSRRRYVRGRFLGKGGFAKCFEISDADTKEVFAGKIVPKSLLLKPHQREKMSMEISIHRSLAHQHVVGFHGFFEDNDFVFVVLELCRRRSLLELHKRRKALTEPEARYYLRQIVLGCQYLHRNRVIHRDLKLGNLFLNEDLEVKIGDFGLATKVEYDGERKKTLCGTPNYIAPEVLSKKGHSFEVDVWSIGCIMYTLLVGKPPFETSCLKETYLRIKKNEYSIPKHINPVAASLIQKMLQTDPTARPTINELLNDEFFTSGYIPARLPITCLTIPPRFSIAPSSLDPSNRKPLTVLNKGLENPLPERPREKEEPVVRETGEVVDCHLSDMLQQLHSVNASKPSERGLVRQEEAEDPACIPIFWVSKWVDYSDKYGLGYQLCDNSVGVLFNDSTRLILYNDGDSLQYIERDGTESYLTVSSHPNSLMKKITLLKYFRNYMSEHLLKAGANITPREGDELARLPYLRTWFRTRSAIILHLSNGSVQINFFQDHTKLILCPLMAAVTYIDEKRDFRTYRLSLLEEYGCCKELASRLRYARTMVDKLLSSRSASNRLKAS

biological target: Serine/threonine-protein kinase PLK1 (Homo sapiens) (UniProt P53350); experiment: qHTS for Inhibitors of PLK1-PDB (polo-like kinase 1 - polo-box domain): Primary Screen; conditions: Plk1 PBD binding of FITC phosphopeptide, fluorescence polarization; note: nearly all actives have a fitted effect of over 65% in size; for max response, negative = inhibition: series mostly up to about 57 µM
% is set by controls: 0 for no effect and ±100 for the full control effect; potency is the fitted concentration of half-maximal effect.

**Q.** For `O=C(NCCc1ccc(Cl)cc1)C1CCN(c2ncccn2)CC1`, which max response, negative = inhibition is on record?
**A.** inactive: -14.2%

**Q.** Which max response, negative = inhibition does the source give for `Nc1nc(-c2ccc(F)cc2)cc(C(F)(F)F)n1` here?
**A.** inactive: -10%

**Q.** How did the Potency turn out when `Cc1ccc(-c2[nH]nc3c2C(c2ccsc2)C(C#N)=C(N)O3)cc1` (configuration not stated) was run?
**A.** inconclusive: 23.8 µM [inhibitor, partial curve]

**Q.** `COc1cc(NC(=S)NCCC(c2ccccc2)c2ccccc2)c(OC)cc1Cl` was tested. Which Potency did it give?
**A.** inconclusive: 29.9 µM [inhibitor, partial curve]

**Q.** With `CC1CCC(C(C)C)C(=O)/C1=C/c1ccc(N)cc1` (configuration not stated) as the molecule, how does the Potency read?
**A.** active: 23.8 µM

**Q.** Which max response, negative = inhibition does the source give for `Cc1cc(C(=O)O)c(=O)[nH]c1C` here?
**A.** inactive: -7.63%

**Q.** Which Potency does the source give for `N#Cc1c(-c2ccc(Cl)cc2)cc(-c2ccccc2)nc1SCC(=O)O` here?
**A.** inconclusive: 26.7 µM [inhibitor, single point]

**Q.** For `Cc1cc(=O)[nH]c(N/N=C/C2=C(N3CCOCC3)C(=C\c3ccc(Cl)cc3)/CC2)n1`, which Potency is on record?
**A.** inconclusive: 26.7 µM [inhibitor, single point]

**Q.** How did the Potency turn out when `COc1ccccc1CSc1ncc(-c2ccc([N+](=O)[O-])cc2)[nH]1` was run?
**A.** inconclusive: 26.7 µM [inhibitor, partial curve]

**Q.** `CC(C)c1cccc(C(C)C)c1Nc1cn[nH]c1` was tested. Which max response, negative = inhibition did it give?
**A.** inactive: 3.35%

**Q.** Which Potency does the source give for `CC1(C)Cc2c(sc3nn[nH]c(=O)c23)CO1` here?
**A.** inconclusive: 21.2 µM [inhibitor, partial curve]

**Q.** Which Potency does the source give for `O=C(NC(=S)Nc1ccc(S(=O)(=O)Nc2nccs2)cc1)c1cccnc1` here?
**A.** inconclusive: 29.9 µM [inhibitor, single point]

**Q.** Which Potency does the source give for `CC1CCc2nn(CC(=O)NCCC3=CCCCC3)cc2C1` (configuration not stated) here?
**A.** inconclusive: 23.8 µM [inhibitor, single point]

**Q.** How did the Potency turn out when `O=C(Cn1c(=O)oc2ccccc21)Nc1n[nH]c(=S)s1` was run?
**A.** inconclusive: 23.8 µM [inhibitor, partial curve]

**Q.** `CCOC(=O)C(C)N1C(=O)S/C(=C\c2ccc(-c3ccccc3C(=O)O)o2)C1=O` (configuration not stated) was tested. Which Potency did it give?
**A.** inconclusive: 18.9 µM [inhibitor, partial curve]

**Q.** With `FC(F)(F)Oc1ccc(NC(=S)NCCCN2CCOCC2)cc1` as the molecule, how does the Potency read?
**A.** active: 11.9 µM

**Q.** Which Potency does the source give for `COc1ccc(NC(=O)c2noc3c2CCCCC3)cc1` here?
**A.** inconclusive: 23.8 µM [inhibitor, single point]

**Q.** `CCCCc1c(CCC)c(=N)c2ccccc2n1C` was tested. Which max response, negative = inhibition did it give?
**A.** inactive: 0.0499%

**Q.** How did the max response, negative = inhibition turn out when `Cc1c(-c2ccccc2)nc2ccccc2c1C(=O)Oc1ccc([N+](=O)[O-])cc1` was run?
**A.** inactive: -3.14%

**Q.** Which Potency does the source give for `O=C(Nc1nncs1)C(Sc1ccccc1)c1ccccc1` (configuration not stated) here?
**A.** inconclusive: 26.7 µM [inhibitor, single point]

**Q.** With `C[C@@H]1CN([C@@H](C)CO)C(=O)CCCn2cc(nn2)CO[C@H]1CN(C)S(=O)(=O)c1cn(C)cn1` as the molecule, how does the Potency read?
**A.** inconclusive: 23.8 µM [inhibitor, single point]

**Q.** `CCOC(=O)COc1nc(C)cc(C(F)(F)F)c1C#N` was tested. Which max response, negative = inhibition did it give?
**A.** inactive: -6.94%

**Q.** Which Potency does the source give for `O=C(COc1ccc(Br)cc1)Nc1nnc(-c2cccnc2)s1` here?
**A.** active: 29.9 µM

**Q.** For `CN(CCC#N)C(=O)COC(=O)c1ccc2[nH]c3c(c2c1)CCCC3`, which max response, negative = inhibition is on record?
**A.** inactive: -1.98%

**Q.** `CC(C)CC(=O)NC(=S)NNC(=O)c1ccc(NC(=O)C2CCCCC2)cc1` was tested. Which max response, negative = inhibition did it give?
**A.** inactive: -22.4%

**Q.** For `O=C(N/N=C/c1cccc(F)c1)c1cc(-c2ccco2)nc2ccccc12`, which Potency is on record?
**A.** active: 10.6 µM

**Q.** Which Potency does the source give for `Cn1c(=O)c2cc(NC(=S)NC3CC3)ccc2n1Cc1ccccc1` here?
**A.** inconclusive: 29.9 µM [inhibitor, partial curve]

**Q.** `Cc1ccc(N(CC(=O)N/N=C/c2ccc(OCC(N)=O)cc2)S(C)(=O)=O)cc1Cl` was tested. Which Potency did it give?
**A.** inconclusive: 26.7 µM [inhibitor, single point]

**Q.** For `O=c1c2cccc(Cl)c2nc2n1Cc1ccccc1-2`, which Potency is on record?
**A.** active: 2.67 µM

**Q.** For `Cc1cc(C)c2c(c1)NC(C(=O)O)C1CC=CC21` (configuration not stated), which Potency is on record?
**A.** active: 2.99 µM

**Q.** Which Potency does the source give for `CCOC(=O)c1cccc(NC(=O)C(C)N2C(=O)c3ccccc3C2=O)c1` (configuration not stated) here?
**A.** inconclusive: 26.7 µM [inhibitor, single point]

**Q.** `Cc1ccc(S(=O)(=O)c2ccc([N+](=O)[O-])cn2)cc1` was tested. Which Potency did it give?
**A.** inconclusive: 1.5 µM [inhibitor, full curve]

**Q.** Which Potency does the source give for `CN(C)c1ccnc(N(Cc2ccccc2)Cc2ccccc2)c1C#N` here?
**A.** inconclusive: 37.7 µM [inhibitor, single point]

**Q.** `C/C=C/C(=O)OCC(=O)Nc1ccc(SC(F)F)cc1` was tested. Which Potency did it give?
**A.** inconclusive: 21.2 µM [inhibitor, single point]

**Q.** With `Nc1nc2c(s1)CC(c1ccccc1)CC2` (configuration not stated) as the molecule, how does the Potency read?
**A.** inconclusive: 26.7 µM [inhibitor, partial curve]

**Q.** With `O=C(O)c1cc(S(=O)(=O)Nc2ccccc2C(=O)O)ccc1O` as the molecule, how does the max response, negative = inhibition read?
**A.** inconclusive: -34.9% [inhibitor]

**Q.** With `Cc1ccc(-c2ccccc2)n1-c1ccc(C(=O)O)cc1` as the molecule, how does the Potency read?
**A.** inconclusive: 33.6 µM [inhibitor, partial curve]

**Q.** With `O=C(Cc1ccc(Cl)cc1)Nc1cccc(S(=O)(=O)N2CCCCC2)c1` as the molecule, how does the max response, negative = inhibition read?
**A.** inactive: 11%

**Q.** Which Potency does the source give for `Nc1c(C(=O)NCc2ccccc2)nnn1Cc1ccc(F)cc1` here?
**A.** inconclusive: 21.2 µM [inhibitor, single point]

**Q.** `O=c1c2cc(Cl)ccc2[nH]c(=S)n1Cc1cccs1` was tested. Which Potency did it give?
**A.** inconclusive: 4.74 µM [inhibitor, full curve, poor fit]

**Q.** With `CCCCCCCCCCCCCCCC[n+]1cccc(C(=O)N(CC)CC)c1` as the molecule, how does the Potency read?
**A.** inconclusive: 29.9 µM [inhibitor, partial curve]

**Q.** And the max response, negative = inhibition?
**A.** inconclusive: -31.4% [inhibitor]

**Q.** For `O=C(O)/C(=C\c1ccc(F)cc1)c1ccc(-c2ccccc2)cc1`, which Potency is on record?
**A.** active: 23.8 µM

**Q.** Which max response, negative = inhibition does the source give for `CCOCCOc1cccc(C(=O)NC(c2ccccc2)c2ccccc2)c1` here?
**A.** inactive: 1.06%

**Q.** For `CCOc1ccc(NC(=S)N/N=C(\C)Cc2ccc(OC)cc2)cc1`, which Potency is on record?
**A.** inconclusive: 21.2 µM [inhibitor, single point]

**Q.** How did the max response, negative = inhibition turn out when `COc1ccc(OC)c(C2NC(=S)NC(C)=C2C(=O)Nc2ccccn2)c1` (configuration not stated) was run?
**A.** inconclusive: -32.7% [inhibitor]

**Q.** How did the max response, negative = inhibition turn out when `COc1ccc(Cl)cc1C(=O)NNC(=O)CCNC(=O)c1ccccc1` was run?
**A.** inactive: 8.54%

**Q.** For `C=CCOc1cccc(C(=O)/C=C2/C(=O)Nc3ccccc32)c1`, which Potency is on record?
**A.** inconclusive: 15 µM [inhibitor, partial curve]

**Q.** For `COc1cc(/C=C/C(=O)O)cc(S(=O)(=O)NCc2ccc3c(c2)OCO3)c1OC`, which Potency is on record?
**A.** inconclusive: 26.7 µM [inhibitor, single point]

**Q.** With `O=C(Nc1ccccc1Cc1ccccc1)c1ccccc1NS(=O)(=O)c1ccc(Cl)s1` as the molecule, how does the Potency read?
**A.** inconclusive: 23.8 µM [inhibitor, single point]

**Q.** Which Potency does the source give for `Cc1nc2scc(C)n2c(=O)c1S(=O)(=O)NCC1CCN(Cc2ccc(F)cc2)CC1` here?
**A.** inconclusive: 42.3 µM [inhibitor, partial curve]

**Q.** Which Potency does the source give for `O=C1NC(=S)S/C1=C\c1ccc2ccccc2c1` here?
**A.** active: 29.9 µM

**Q.** With `COc1ccc(-n2nc3cc(N)c(Br)cc3n2)cc1` as the molecule, how does the max response, negative = inhibition read?
**A.** inactive: -14.3%

**Q.** How did the max response, negative = inhibition turn out when `COc1ccc(/C=N/NC(=O)c2nnn(-c3nonc3N)c2-c2cccs2)cc1OC` was run?
**A.** inactive: -15.7%

**Q.** `O=C(O)COc1ccccc1/C=N/Nc1ccc(S(=O)(=O)Nc2ccc(Cl)cc2)cc1[N+](=O)[O-]` was tested. Which Potency did it give?
**A.** inconclusive: 23.8 µM [inhibitor, single point]

**Q.** `CC(C)(C)N1NC2(CCCCC2)NC1=S` was tested. Which Potency did it give?
**A.** inconclusive: 26.7 µM [inhibitor, partial curve]

**Q.** Which Potency does the source give for `CCN(CC(=O)Nc1ccc(OC)cc1)C(=O)c1ccc([N+](=O)[O-])cc1` here?
**A.** active: 6.7 µM

**Q.** With `O=C(NC(=S)N1CCCCC1CO)c1cc(Br)ccc1Cl` (configuration not stated) as the molecule, how does the Potency read?
**A.** inconclusive: 18.9 µM [inhibitor, partial curve]

**Q.** `O=C(/C=C/c1c(Cl)cccc1Cl)n1cccn1` was tested. Which Potency did it give?
**A.** inconclusive: 26.7 µM [inhibitor, partial curve]

**Q.** `O=C(O)C1CSC(c2ccco2)N1` (configuration not stated) was tested. Which Potency did it give?
**A.** inconclusive: 21.2 µM [inhibitor, partial curve]

**Q.** `CCOc1ccc(NC(=O)C2CCN(S(=O)(=O)c3cccs3)CC2)cc1` was tested. Which Potency did it give?
**A.** inconclusive: 42.3 µM [inhibitor, single point]

**Q.** For `Cc1ccc(C)c(NC(=O)C(Sc2nnc(-c3cccs3)o2)c2ccccc2)c1` (configuration not stated), which Potency is on record?
**A.** inconclusive: 29.9 µM [inhibitor, partial curve]

**Q.** `COc1ccc(N2CCN(C(=O)C(=O)c3c[nH]c4ccccc34)CC2)cc1` was tested. Which max response, negative = inhibition did it give?
**A.** inactive: -12.4%

**Q.** How did the Potency turn out when `CCOc1c(Br)cc(C(N)=O)cc1OC` was run?
**A.** inconclusive: 29.9 µM [inhibitor, partial curve]

**Q.** Which Potency does the source give for `COc1ccc(CC(=O)NCc2nnc(SCC(=O)Nc3ncc(C)s3)n2C)cc1` here?
**A.** active: 13.4 µM

**Q.** With `c1coc(CN2CCN(C(c3cccs3)c3nnnn3C3CCCC3)CC2)c1` (configuration not stated) as the molecule, how does the Potency read?
**A.** inconclusive: 26.7 µM [inhibitor, partial curve]

**Q.** `CCOc1ccc(C(C)=O)cc1CSc1nc2nc(C)cc(C)n2n1` was tested. Which Potency did it give?
**A.** inconclusive: 26.7 µM [inhibitor, single point]

**Q.** For `COC(=O)c1sc2ncn(CC(=O)NCCc3ccc(OC)c(OC)c3)c(=O)c2c1C`, which Potency is on record?
**A.** inconclusive: 8.44 µM [inhibitor, partial curve]

**Q.** `CCCCCCC(O)(CCN1CCCCC1)c1ccccc1` (configuration not stated) was tested. Which Potency did it give?
**A.** active: 29.9 µM

**Q.** How did the Potency turn out when `S=c1[nH]ccn1CCc1ccccc1` was run?
**A.** inconclusive: 21.2 µM [inhibitor, single point]

**Q.** `COc1ccc(CC(=O)NCc2n[nH]c(=S)n2-c2ccc(Br)cc2)cc1` was tested. Which Potency did it give?
**A.** inconclusive: 23.8 µM [inhibitor, partial curve]

**Q.** With `CCOC(=O)C1CCN(C(=O)CCc2nnc3ccc(N4CCN(C)CC4)nn23)CC1` as the molecule, how does the Potency read?
**A.** inconclusive: 26.7 µM [inhibitor, partial curve]
